No constants are given. Whether binding was seen depends on the method and setting. Some results given as binding are weak or reduced against the parent protein; the word gives no strength.
Experiments:
[1] = biological target: T1, human Leucine-Rich Repeat-Containing Protein 33 (LRRC33) (human) (UniProt Q86YC3); assay: FACS on 293T transfectants
T1 sequence: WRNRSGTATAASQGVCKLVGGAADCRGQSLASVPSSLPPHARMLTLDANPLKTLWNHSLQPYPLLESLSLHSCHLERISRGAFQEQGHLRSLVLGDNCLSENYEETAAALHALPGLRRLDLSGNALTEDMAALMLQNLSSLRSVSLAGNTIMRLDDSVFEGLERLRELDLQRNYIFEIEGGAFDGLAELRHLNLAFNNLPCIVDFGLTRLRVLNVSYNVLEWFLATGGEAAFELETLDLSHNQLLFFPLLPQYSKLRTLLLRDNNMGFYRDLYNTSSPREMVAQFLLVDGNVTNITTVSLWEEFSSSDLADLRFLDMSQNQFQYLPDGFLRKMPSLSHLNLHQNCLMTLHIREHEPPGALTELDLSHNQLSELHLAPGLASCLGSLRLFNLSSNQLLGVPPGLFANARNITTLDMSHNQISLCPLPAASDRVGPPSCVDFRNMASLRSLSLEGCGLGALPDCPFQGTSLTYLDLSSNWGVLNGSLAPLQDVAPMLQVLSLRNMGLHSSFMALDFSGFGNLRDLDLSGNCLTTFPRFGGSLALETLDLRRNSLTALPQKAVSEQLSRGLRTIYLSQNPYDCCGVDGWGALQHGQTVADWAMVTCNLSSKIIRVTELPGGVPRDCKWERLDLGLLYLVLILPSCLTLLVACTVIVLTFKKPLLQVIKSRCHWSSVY

[2] = biological target: human LRRC33 complexed with pro-TGF-β1 (human) (UniProt Q86YC3); assay: FACS on 293T transfectants
[3] = biological target: LRRC33/GARP chimera 33-32-X5 (human) (UniProt Q14392); assay: FACS on 293T transfectants co-expressing proTGF-β1
[4] = biological target: human LRRC33 complexed with pro-TGF-β1 (human) (UniProt Q86YC3); assay: FACS on 293T transfectants co-expressing proTGF-β1
[5] = biological target: T1, human Leucine-Rich Repeat-Containing Protein 33 (LRRC33) (human); assay: FACS on THP-1 cells, with or without PMA
[6] = biological target: human LRRC33 complexed with pro-TGF-β1 (human) (UniProt Q86YC3); assay: immunoprecipitation from 293T co-transfectant lysates; FACS on co-transfectants
[7] = biological target: T1, human Leucine-Rich Repeat-Containing Protein 33 (LRRC33) (human); assay: immunoprecipitation from L1.2 transfectant lysates, blot

binding [1]: binds
binding [2]: binds
binding [3]: binds
binding [4]: binds
binding [5]: binds
binding [6]: binds
binding [7]: binds
B1: anti-LRRC33 monoclonal antibody (mAb) (antibody, V domains shown)
VH: EFQLQQSGPELVKPGASVKMSCKASGYSFTDSYMDWVKQSNGKTLEWIGLINPKYGTTTYNQKFKGKATLTVDQSSSTAYMQLNSLTSEDSAVYFCASLYYDYSAWFAYWGQGTLVTVSA
VL: QAVVTQESALTTSPGETVTLTCRSSTGAVTTSNYANWVQEKPDHLFTGLIGGTNNRAPGVPARFSGSLIGDKAALIITGAQTEDEAIYFCGLWFSNRWVFGGGTKLTVV
notes: Mouse hybridoma mAb raised in Lrrc33-/- mice against L1.2 cells expressing the 33-32-X1 chimera; also called anti-LRRC33 mAb; anti-LRRC33 antibody
